These are yes or no findings as the source states them, for the method shown. In cells and extracts the contact can be indirect. Some results given as binding are weak or reduced against the parent protein; the word gives no strength. Tags and fused reporters may be left off the sequences shown.

This experiment deals with T1, Flag-SLC27A5 (solute carrier family 27 member 5, 3xFlag-tagged) (human) (UniProt Q9Y2P5).
T1 sequence: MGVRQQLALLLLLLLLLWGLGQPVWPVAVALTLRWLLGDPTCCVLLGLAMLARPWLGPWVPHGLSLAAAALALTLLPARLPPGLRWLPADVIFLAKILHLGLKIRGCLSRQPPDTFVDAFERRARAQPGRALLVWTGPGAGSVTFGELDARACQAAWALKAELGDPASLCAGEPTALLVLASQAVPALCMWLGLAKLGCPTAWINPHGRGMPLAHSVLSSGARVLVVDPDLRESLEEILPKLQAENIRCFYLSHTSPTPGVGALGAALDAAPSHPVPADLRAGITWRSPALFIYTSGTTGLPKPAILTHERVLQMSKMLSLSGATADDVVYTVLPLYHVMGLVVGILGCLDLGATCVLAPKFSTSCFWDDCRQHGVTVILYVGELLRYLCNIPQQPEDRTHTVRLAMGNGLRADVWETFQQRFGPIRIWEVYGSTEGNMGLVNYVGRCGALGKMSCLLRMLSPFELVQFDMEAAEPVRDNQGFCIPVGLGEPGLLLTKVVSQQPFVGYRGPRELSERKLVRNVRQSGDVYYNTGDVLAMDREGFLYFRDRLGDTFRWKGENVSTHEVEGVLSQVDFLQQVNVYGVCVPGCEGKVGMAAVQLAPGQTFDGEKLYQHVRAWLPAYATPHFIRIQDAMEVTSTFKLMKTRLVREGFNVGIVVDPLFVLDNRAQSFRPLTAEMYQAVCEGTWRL
Briefly: co-IP; PLC/PRF/5 cells transfected with Flag-SLC27A5 and Myc-IGF2BP3 or their truncated forms; IP with anti-Myc or anti-Flag, IgG as control; RIPA lysate, magnetic beads, overnight at 4 °C.

B1: IGF2BP3 KH3-4 (aa 345-579) (domain or fragment, UniProt O00425 345-579)
chain: KKIRESYENDIASMNLQAHLIPGLNLNALGLFPPTSGMPPPTSGPPSAMTPPYPQFEQSETETVHLFIPALSVGAIIGKQGQHIKQLSRFAGASIKIAPAEAPDAKVRMVIITGPPEAQFKAQGRIYGKIKEENFVSPKEEVKLEAHIRVPSFAAGRVIGKGGKTVNELQNLSSAEVVVPRDQTPDENDQVVVKITGHFYACQVAQRKIQEILTQVKQHQQQKALQSGPPQSRRK
B1: the binding entry is given as “binds”.

For the origin of these results see PMC10837360.
